Measurements from “University of Dundee, Small-Polar-MMV Screening Library” (2021), ChEMBL document CHEMBL3988442.

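Viability assay of Plasmodium falciparum sporozoites; the read-out is not stated. The concentration is filed as 10 mM, unlikely as a test dose, so the dose is not known. The record gives no direction; compounds that gave an IC50 in retests scored well above the rest, so higher reads as lower viability. Strong results were mostly tested again. About 34,000 compounds were tested under these conditions; 0.84% (about 280) showed 50% or more at least once.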

Results are given as percent effect. The controls that fix the scale are not given in the record; negative values are as filed. This is an unselected part of the compounds tested. Two or more numbers in one place are separate tests of the same structure; such repeats can differ widely.

compound,effect
CO[C@@H]1CCN(c2ncc(F)cn2)[C@H]1Cc1cnn(C)c1,-1.444
Brc1ccc(CN2CCC(NCc3ncc[nH]3)CC2)cc1,5.882
O=C(O)C(F)(F)F.[H][C@]12CCN(C(=O)CC(C)(C)C)CC[C@@]1([H])S(=O)(=O)CCN2C,-1.986
COc1ccc(-c2noc(CN3CC(n4cccn4)C3)n2)c(OC)c1,2.899
CN1CCN(c2ncc3c(=O)n(-c4cccc(F)c4)c(=O)[nH]c3n2)CC1,-5.073
O=C1CCCN1CCCC(=O)N1CCC2(CC1)[C@H](O)C[C@@H]2O,-13.38
Cc1cccc(NC(=O)Cn2nc3ccccn3c2=O)c1C,5.795
CCc1nc(CN2CCN(C(=O)C3(C#N)CCCC3)CC2)cs1,5.41
COc1cc2ncn(Cc3ncc[nH]3)c(=O)c2cc1OC,12.53
Cc1nc(C)n(CC2CN(c3ncccn3)Cc3nccn3C2)n1 (stereo not drawn),-9.689
[H][C@]12CC[C@](O)(CC1)C(COC)N2S(=O)(=O)c1cn(C)cn1 (stereo partly drawn),-40.05
O=C(NCCOc1ccccc1)C1NCCc2[nH]cnc21 (stereo not drawn),-19.53
[H][C@@]12CN(C(=O)[C@H]3CCCO3)C[C@]1([H])C(=O)N(Cc1cccc(C)c1)C2,5.08
CCN(Cc1ccc2c(c1)OCO2)C(=O)NCc1nc(C)cs1,-32.33 and 7.358 and -27.07
O=C(CNCCn1cccn1)NCC1(c2ccccc2)CC1,0.9249
Cn1cccc1C(=O)N1CCCC1c1ccc(CN2CCOCC2)cn1 (stereo not drawn),-3.885
Cc1cccc(-c2noc(CN3CCc4c(ncn4C4CC4)C3)n2)c1,39.81 and 43.38
O=C(Cn1cnc(NC(=O)CC2CCCC2)n1)NCc1ccccc1,3.957
[H][C@@]12C[C@H](C(=O)NC(C)C)[C@@]([H])(CN(C(=O)NCCc3ccccc3)C1)O2,-17.27
O=C(CCN1CCOCC1)NC1CCCN(CC2CCCCC2)C1 (stereo not drawn),-10.62
Cc1nc[nH]c1-c1nc2cc(S(=O)(=O)N3CCCC3)ccc2n1C,-4.604
Cn1ccnc1CN1CCC2(CC1)CC(NC(=O)c1ccccn1)CO2.O=C(O)C(F)(F)F (stereo not drawn),2.793
Cc1nc(C)n(CC2CCCN2Cc2nc3ccccc3nc2C)n1 (stereo not drawn),-12.5
COc1ccc(CNCc2c(C)nc3sc(C)cn23)c(OC)c1OC,-13.14
O=S1(=O)CCC(S(=O)(=O)c2cccc(S(=O)(=O)N3CCCC3)c2)C1 (stereo not drawn),-2.656
O=C1CC(c2cccs2)c2cnn(C3CCCC3)c2N1 (stereo not drawn),-1.073
O=C(O)C(F)(F)F.[H][C@@]12CCN(c3ncccn3)C[C@]1([H])CN(C(=O)CC(C)C)C2,11.35
Cc1ccc(N2CCCC3(CCN(C(=O)C4CC4)C3)C2)nn1 (stereo not drawn),9.284
COc1ccccc1OCC(=O)NS(=O)(=O)c1ccccc1Br,4.8
Cn1cnc2c1CCN(Cc1csc(-c3ccco3)n1)C2,-7.75 and 35.59 and -7.262
[H][C@@]12CN(C(=O)C3CCOC3)C[C@]1([H])C(=O)N(Cc1cccc(F)c1)C2 (stereo partly drawn),12.32
Cc1cnc(C(=O)N2CCCC(n3nc(C)nc3C)C2)cn1 (stereo not drawn),-6.568
Cn1cnc2c1CCN(CCCS(=O)(=O)c1ccccc1)C2,1.972
Cc1cc2n(n1)CC(CNCCc1cnn(C)c1)CN2 (stereo not drawn),12.57
COc1ccc(Cl)cc1C(=O)NC(CC(=O)O)c1cccs1 (stereo not drawn),-0.6057
Cc1nc(CC(=O)N2CCc3nc(-c4cnccn4)nc(O)c3C2)cs1,3.664
Cc1n[nH]cc1C(=O)NCc1cccnc1N1CCc2ccccc2C1,-4.386
CN(C)Cc1cncc2c1CCN(CC(=O)N(C)C)C2,10.3
CCc1cnc(CN(C(C)=O)C2CCN(CCc3cnn(C)c3)C2)o1 (stereo not drawn),7.579
Cc1cc(C)c(CNC(=O)N2CCCC2c2cccn2C)c(=O)[nH]1 (stereo not drawn),-2.864
CC(C)C(=O)N(C)CC(=O)Nc1ccc(Br)cn1,14
O=C(O)C(F)(F)F.[H][C@]12CCN(C(=O)c3cccs3)C[C@@]1([H])OCCN(C1CCOCC1)C2,-0.5063
Cc1nccc(CNC(=O)N(CCCO)C2CCc3ccccc32)n1 (stereo not drawn),17.1
Cc1cc(C2CCCN(CCCS(=O)(=O)c3ccccc3)C2)n[nH]1 (stereo not drawn),9.128
O=C(Cn1cnc2cc3c(cc21)OCCCO3)NC1CCCCC1,58.19 and 56.08 and 47.01
Cc1cncc(C(=O)N2Cc3ccccc3C3(CCN(C)CC3)C2)c1,-10.63
COc1ccc(-c2cc3nc(CCNC(=O)C4CC4)nn3cn2)cc1,18.48
O=C(Cc1cn2ccsc2n1)N1CCCC(n2ccnc2)C1 (stereo not drawn),9.411
Cn1cc(C2CCCN2C(=O)Cc2n[nH]c3ccccc23)cn1 (stereo not drawn),16.04
C=Cn1cc(CN2CCN(CC3(c4ccccc4)CC3)CC2)c(C)n1,3.357
Cc1nnc(C(C)NCC2(c3c(F)cccc3F)CCCC2)o1 (stereo not drawn),1.529
CC(C)n1cc(S(=O)(=O)N2CCSCC2)cn1,-20.08 and -2.074
O=C(O)C(F)(F)F.[H][C@@]12CN(C(=O)c3ccnnc3)C[C@]1([H])C(=O)N(Cc1csc(C)n1)C2,-5.486
O=C(CS(=O)(=O)CC1CCCCC1)NC1CCCCNC1=O (stereo not drawn),-1.635
Cc1cc(C(=O)O)cc(S(=O)(=O)Nc2ccc3c(c2)OCO3)c1C,-18.65 and -9.344 and 19.65
COC(C)c1noc(CN(C)c2ncccn2)n1 (stereo not drawn),-8.653
O=C(NC1(c2cccc(F)c2)CCOCC1)c1ccoc1,3.053
COc1ccnc(NC(=O)c2cscc2C)c1,-44.74 and 54.17 and -31.72
COC[C@@H]1CCC[C@@]12CN(C(=O)N(C)C)CCO2,4.557
CN(C)c1ccc(C(=O)Nc2ccn(CC(N)=O)n2)cn1,-10.29
O=C(O)C(F)(F)F.[H][C@]12CCN(C(=O)c3ccoc3)[C@@]1([H])CC[C@H](COCCN1CCCC1)O2,-3.686
COC(C)(C)C(=O)N1CCC(c2cc(CN(C)C)n(C)n2)CC1.Cl,11.16
Cl.c1cnc(Nc2cc(CCC3CCCNC3)ccn2)cn1 (stereo not drawn),6.918
Cc1ccc(CN2CCCC(c3cnccn3)C2)s1 (stereo not drawn),-1.907
CCn1cc(CN2CCCN(C(=O)CCN3CCCC3=O)CC2)cn1,1.106
O=C(N1CCCC1)N1CCOCC2(C1)CN(c1ccccc1)C(=O)CO2 (stereo not drawn),8.094 and -17.57 and -21.95
Cc1cc(C)n(C2CCCN(C(=O)c3c(C)noc3C)C2)n1 (stereo not drawn),-13.6
CCN1CC2(CCC1=O)CCN(C(=O)c1ccc(Cl)cc1O)CC2,0.224
Cc1cc(CN(Cc2cccs2)CC2CCCO2)on1 (stereo not drawn),14.47
Cl.O=C(O)CC1CN(Cc2ccccc2)CCO1 (stereo not drawn),1.804 and -16.89 and -21.94
Cc1ccc(-c2nc(CN3CCOCC3)no2)cc1N1CCNC1=O,-8.218
COc1ccc2[nH]cc(C(=O)CNc3nccs3)c2c1.I,-5.571 and -1.352
Cc1c[nH]nc1C1CCN(C(=O)C2CCOCC2)C1 (stereo not drawn),-9.491
CCN1CCC2(C=C(C(=O)N(C)C)c3ccccc32)CC1.O=C(O)C(F)(F)F,1.226
CN(C)CC1CN(Cc2nc(-c3ccccn3)no2)CCO1 (stereo not drawn),24.23
CCOc1ccc(CC(CNC(=O)c2ccco2)C(N)=O)cc1 (stereo not drawn),-4.682
Cc1cc(C)n(CCNCc2cc(-c3ccc(Cl)cc3)c[nH]c2=O)n1,25.3
CN(C)C(C(=O)NCC1(O)CCCCC1)c1c(F)cccc1F (stereo not drawn),6.629
O=C(O)C(F)(F)F.O=C(O)C(F)(F)F.O=C(O)C(F)(F)F.c1ccc(N2CC3(CCN(Cc4cccnc4)C3)C2)nc1,-0.08757
Cc1cc(F)cc(S(=O)(=O)Nc2ccn(CCCC#N)n2)c1,-17.71
CC(NCc1cccnc1)c1ccc(OCC(=O)NC2CC2)cc1 (stereo not drawn),-28.64
CC(C)(C)CC(=O)N1CCc2sccc2C1,-2.086
Cc1cnn(C2CCCN(C(=O)c3ccc(N4CCCC4)nn3)C2)c1 (stereo not drawn),-4.399
CC(=O)c1cc(CC(=O)N2CCN(S(=O)(=O)c3ccccc3)CC2)cs1,-15.02
Cc1oc2c(c1C(=O)N1CC[C@H](O)[C@]3(CCCO3)C1)CCCC2,4.681
COc1ccccc1CN1CCCC(Cc2nccnc2N)C1 (stereo not drawn),4.795
c1cncc(CN2CCc3ncnc(NCCc4c[nH]cn4)c3CC2)c1,-18.44
Cc1nc(C2CCCN2CC(=O)N2CCc3ccccc32)no1 (stereo not drawn),4.129
Cc1nc(CN2CCCC2c2ccsc2)nc2ccccc12 (stereo not drawn),6.205
CN1CC(C(=O)NCCc2ccc(Br)cc2F)CC1=O (stereo not drawn),8.953

The last 6 entries again:

With Cc1oc2c(c1C(=O)N1CC[C@H](O)[C@]3(CCCO3)C1)CCCC2 the screen gave 4.681%.
With COc1ccccc1CN1CCCC(Cc2nccnc2N)C1 (stereo not drawn) the screen gave 4.795%.
With c1cncc(CN2CCc3ncnc(NCCc4c[nH]cn4)c3CC2)c1 the screen gave -18.44%.
With Cc1nc(C2CCCN2CC(=O)N2CCc3ccccc32)no1 (stereo not drawn) the screen gave 4.129%.
With Cc1nc(CN2CCCC2c2ccsc2)nc2ccccc12 (stereo not drawn) the screen gave 6.205%.
With CN1CC(C(=O)NCCc2ccc(Br)cc2F)CC1=O (stereo not drawn) the screen gave 8.953%.